Some of the results follow. Single values are uncertain, as repeats are few or missing.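 Imaging used 1,536-well plates; nuclei positive for cleaved PARP by antibody were divided by total DNA-stained nuclei to yield the apoptosis fraction. Doses for screening kept most cells viable, and cell lines differ markedly in resting and induced cleaved-PARP levels.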
system: WM1745; assay: cleaved PARP positive nuclei fraction relative to DMSO control; melanoma cells; higher = more apoptosis; details: library dose: low library concentration; 72 h

| Structure (SMILES) | cleaved PARP positive nuclei fraction |
| --- | --- |
| C=CCNC1=C2C[C@@H](C)C[C@H](OC)[C@H](O)[C@@H](C)/C=C(\C)[C@H](OC(N)=O)[C@@H](OC)/C=C\C=C(/C)C(=O)NC(=CC1=O)C2=O [Tanespimycin] + Cn1c(Nc2ccc(C(F)(F)F)cc2)nc2cc(Oc3ccnc(-c4ncc(C(F)(F)F)[nH]4)c3)ccc21 [CHIR265] (first compound 0.002 µM, partner dose 0.08 µM) | 141% |
| Clc1ccc(Nc2nnc(Cc3ccncc3)c3ccccc23)cc1 [vatalanib] + CC(C)(C)c1cnc(CSc2cnc(NC(=O)C3CCNCC3)s2)o1 [SNS-032] (first compound 2 µM, partner dose 0.01 µM) | 111% |
| C[C@]1(c2nc3c(C(N)=O)cccc3[nH]2)CCCN1 [Veliparib] + CC(C)(C)c1cnc(CSc2cnc(NC(=O)C3CCNCC3)s2)o1 [SNS-032] (first compound 1.4 µM, partner dose 0.01 µM) | 192% |
| C#Cc1cccc(Nc2ncnc3cc(OCCOC)c(OCCOC)cc23)c1 [erlotinib] + CN(C)S(=O)(=O)c1ccc2c(c1)/C(=C/c1cc3c([nH]1)CCCC3)C(=O)N2 [SU6656] (first compound 0.8 µM, partner dose 0.4 µM) | 99.1% |
| Cc1ccc(NC(=O)c2cccc(N(C)C)c2)cc1NC(=O)c1ccc(O)cc1 + Oc1cc(-c2nc(-c3ccccc3)[nH]c2-c2ccncc2)ccc1Cl [L779450] (first compound 2 µM, partner dose 0.2 µM) | 112% |
